# Measured values as given in paper doi:10.1101/2022.12.14.520480.
# Protein sequences, listed by entry. Tags and fused reporters are not part of them.
# UniProt Q00610: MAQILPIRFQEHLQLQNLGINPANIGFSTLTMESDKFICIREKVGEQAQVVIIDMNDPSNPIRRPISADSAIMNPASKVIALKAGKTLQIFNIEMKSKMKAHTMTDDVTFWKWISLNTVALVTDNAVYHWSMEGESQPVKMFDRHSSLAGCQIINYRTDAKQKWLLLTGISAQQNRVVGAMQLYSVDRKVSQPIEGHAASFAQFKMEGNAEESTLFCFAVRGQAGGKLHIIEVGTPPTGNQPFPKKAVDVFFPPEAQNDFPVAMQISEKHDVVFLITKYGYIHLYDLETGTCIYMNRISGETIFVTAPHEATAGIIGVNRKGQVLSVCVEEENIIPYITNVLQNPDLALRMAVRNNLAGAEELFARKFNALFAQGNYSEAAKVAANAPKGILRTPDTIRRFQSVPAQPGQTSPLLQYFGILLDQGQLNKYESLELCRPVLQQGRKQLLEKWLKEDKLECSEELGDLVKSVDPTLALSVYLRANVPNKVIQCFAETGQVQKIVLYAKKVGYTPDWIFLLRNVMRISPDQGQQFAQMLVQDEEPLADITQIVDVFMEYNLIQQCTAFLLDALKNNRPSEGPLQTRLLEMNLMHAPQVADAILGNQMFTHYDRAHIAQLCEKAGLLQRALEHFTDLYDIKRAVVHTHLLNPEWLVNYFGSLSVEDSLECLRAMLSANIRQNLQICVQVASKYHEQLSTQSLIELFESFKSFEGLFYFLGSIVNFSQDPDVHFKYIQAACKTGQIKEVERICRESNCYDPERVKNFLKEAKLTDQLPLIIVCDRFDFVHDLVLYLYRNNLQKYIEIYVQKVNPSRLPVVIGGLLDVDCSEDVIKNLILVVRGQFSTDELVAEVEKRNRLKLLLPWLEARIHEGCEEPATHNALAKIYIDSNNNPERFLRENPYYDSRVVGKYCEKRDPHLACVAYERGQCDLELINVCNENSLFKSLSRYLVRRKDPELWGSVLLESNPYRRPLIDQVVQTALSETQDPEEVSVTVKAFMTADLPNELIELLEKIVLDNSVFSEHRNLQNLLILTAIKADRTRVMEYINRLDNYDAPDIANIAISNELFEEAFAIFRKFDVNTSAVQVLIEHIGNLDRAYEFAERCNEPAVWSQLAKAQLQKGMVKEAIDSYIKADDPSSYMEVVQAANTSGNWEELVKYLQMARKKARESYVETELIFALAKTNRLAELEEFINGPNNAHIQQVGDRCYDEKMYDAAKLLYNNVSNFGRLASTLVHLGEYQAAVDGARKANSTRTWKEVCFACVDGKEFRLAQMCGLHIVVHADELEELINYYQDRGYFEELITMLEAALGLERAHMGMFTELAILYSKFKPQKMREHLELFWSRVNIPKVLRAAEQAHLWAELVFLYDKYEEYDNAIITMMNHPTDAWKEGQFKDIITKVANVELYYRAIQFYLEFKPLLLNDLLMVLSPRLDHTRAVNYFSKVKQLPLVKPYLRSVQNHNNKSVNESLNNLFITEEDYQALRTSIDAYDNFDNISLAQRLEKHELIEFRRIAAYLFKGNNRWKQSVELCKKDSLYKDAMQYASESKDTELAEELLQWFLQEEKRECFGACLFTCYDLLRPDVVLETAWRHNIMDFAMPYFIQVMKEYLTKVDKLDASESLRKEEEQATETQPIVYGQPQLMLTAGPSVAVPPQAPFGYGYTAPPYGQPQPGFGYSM
# Results are given in words; binding and its absence hold for the method and conditions named. In cells and extracts the contact can be indirect. Some binding calls cover weakened binding; strength is not graded here. For some assays here: Where a sequence is shown, tags or fusion partners need not be part of it.
# Legend:
# [1] = target: T1, GST-TBC1D15 ΔCter (amino acids 1–399) (UniProt Q8TC07); test: pull-down
# T1 sequence: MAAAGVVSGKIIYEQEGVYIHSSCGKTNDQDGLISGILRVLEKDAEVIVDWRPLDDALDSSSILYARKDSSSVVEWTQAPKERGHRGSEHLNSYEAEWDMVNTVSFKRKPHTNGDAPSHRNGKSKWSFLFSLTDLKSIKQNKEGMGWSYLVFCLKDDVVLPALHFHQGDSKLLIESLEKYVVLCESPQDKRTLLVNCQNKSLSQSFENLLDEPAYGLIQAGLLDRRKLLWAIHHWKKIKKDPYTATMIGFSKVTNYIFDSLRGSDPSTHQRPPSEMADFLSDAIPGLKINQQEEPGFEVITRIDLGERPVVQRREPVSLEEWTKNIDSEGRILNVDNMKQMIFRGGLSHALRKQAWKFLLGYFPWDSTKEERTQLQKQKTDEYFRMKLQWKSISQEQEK
# [2] = target: T2, Dynamin2 (endogenous) (human (endogenous in HeLa and HEK 293T)) (UniProt P50570); test: co-IP
# T2 sequence: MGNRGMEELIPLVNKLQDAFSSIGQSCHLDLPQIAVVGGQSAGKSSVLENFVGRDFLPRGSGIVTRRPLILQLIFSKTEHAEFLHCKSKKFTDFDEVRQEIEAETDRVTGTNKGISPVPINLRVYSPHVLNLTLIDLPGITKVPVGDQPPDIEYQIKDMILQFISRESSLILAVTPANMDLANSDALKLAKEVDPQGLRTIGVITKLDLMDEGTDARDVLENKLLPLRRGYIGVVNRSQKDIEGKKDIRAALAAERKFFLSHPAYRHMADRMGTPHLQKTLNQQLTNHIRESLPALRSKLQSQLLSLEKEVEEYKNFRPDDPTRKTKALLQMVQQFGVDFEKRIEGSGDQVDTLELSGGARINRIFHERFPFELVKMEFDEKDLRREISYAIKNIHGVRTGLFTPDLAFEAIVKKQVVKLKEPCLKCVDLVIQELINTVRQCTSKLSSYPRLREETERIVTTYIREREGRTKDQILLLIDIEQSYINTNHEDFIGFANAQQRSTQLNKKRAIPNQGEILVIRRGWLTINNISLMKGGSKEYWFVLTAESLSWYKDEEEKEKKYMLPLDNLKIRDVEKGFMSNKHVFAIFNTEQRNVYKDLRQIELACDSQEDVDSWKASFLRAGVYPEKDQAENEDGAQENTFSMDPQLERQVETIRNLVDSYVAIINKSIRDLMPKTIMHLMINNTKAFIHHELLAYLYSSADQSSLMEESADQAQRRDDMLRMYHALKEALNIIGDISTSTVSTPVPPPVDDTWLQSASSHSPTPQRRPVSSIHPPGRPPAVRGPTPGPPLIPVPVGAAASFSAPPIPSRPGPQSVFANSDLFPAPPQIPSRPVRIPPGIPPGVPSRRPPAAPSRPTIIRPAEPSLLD
substance,measurement,setting,value
Clathrin heavy chain CLTC (endogenous) (from UniProt Q00610 1-1675),binding,[1],binds
same,binding,[2],binds
